The list shows a part of the results. Residues, ends and D or L forms follow the SMILES beside them. *: point of attachment. Cbz = O=C(OCc1ccccc1)*
Tests used:
Test in all cases: log2 fold change, soluble protein after heating vs DMSO (PISA); higher = thermal stabilisation; K562 cells, 10 uM, 30 min; active = over 0.2 and 3.5 SD of the protein, either way, in both replicates (recomputed)
erlotinib = compound: C#Cc1cccc(Nc2ncnc3cc(OCCOC)c(OCCOC)cc23)c1 [erlotinib]
Procedure, shortened: (§1)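 K562 cells at 2×10^6 cells/mL were exposed to 10 μM compound for 30 min, then aliquots were heated for 3 min across 48°C-58°C, pooled, and extracted in PBS containing 0.5% NP-40 at 4°C. The supernatant after 21,000xg for 90 min was taken as soluble protein and measured by TMTpro 16plex LC-MS/MS with channel sums equalised. Thermal stability is reported relative to control samples, with values from duplicates. Fold changes are given on a log2 scale.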

By UniProt entry, the sequences of proteins in these tests, tags left out. Where a name states a change or a piece, a line headed by the entry shows the natural chain unless it says otherwise.
UniProt P98194: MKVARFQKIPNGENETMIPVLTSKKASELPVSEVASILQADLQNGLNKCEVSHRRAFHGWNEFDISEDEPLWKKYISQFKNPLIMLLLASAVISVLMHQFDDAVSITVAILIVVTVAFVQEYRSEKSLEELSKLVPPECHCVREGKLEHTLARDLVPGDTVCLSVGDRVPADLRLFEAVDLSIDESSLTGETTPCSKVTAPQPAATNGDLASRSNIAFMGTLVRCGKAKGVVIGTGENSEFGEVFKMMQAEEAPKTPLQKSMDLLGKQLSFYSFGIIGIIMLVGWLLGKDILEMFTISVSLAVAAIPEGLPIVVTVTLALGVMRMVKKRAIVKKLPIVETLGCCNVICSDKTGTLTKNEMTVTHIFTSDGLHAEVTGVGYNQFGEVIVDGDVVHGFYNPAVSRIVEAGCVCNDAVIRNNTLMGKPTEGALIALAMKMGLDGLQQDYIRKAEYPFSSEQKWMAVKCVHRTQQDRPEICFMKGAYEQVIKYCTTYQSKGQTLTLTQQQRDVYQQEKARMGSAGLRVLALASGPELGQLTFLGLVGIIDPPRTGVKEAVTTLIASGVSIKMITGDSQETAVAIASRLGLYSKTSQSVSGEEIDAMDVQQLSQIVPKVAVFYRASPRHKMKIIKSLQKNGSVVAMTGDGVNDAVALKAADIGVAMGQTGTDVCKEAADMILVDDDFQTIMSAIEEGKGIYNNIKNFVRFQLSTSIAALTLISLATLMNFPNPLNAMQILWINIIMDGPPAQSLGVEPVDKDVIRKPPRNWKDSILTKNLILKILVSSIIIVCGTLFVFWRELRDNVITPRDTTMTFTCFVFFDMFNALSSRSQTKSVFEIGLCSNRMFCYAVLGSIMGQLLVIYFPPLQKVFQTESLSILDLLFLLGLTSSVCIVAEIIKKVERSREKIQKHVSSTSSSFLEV
UniProt Q6ZNE5, whole entry, looked up: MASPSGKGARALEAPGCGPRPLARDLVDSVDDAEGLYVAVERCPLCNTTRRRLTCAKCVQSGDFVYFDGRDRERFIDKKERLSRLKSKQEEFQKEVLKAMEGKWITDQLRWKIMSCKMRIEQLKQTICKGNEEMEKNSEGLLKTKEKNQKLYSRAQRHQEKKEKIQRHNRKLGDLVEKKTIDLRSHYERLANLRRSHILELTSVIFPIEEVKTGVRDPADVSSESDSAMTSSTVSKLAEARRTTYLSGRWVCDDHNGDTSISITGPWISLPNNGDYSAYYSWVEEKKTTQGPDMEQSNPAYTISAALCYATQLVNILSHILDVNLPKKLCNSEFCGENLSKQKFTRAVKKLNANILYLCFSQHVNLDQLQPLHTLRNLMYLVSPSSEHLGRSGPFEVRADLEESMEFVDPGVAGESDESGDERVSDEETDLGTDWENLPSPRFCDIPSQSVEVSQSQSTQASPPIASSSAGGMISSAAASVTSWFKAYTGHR
UniProt P18850: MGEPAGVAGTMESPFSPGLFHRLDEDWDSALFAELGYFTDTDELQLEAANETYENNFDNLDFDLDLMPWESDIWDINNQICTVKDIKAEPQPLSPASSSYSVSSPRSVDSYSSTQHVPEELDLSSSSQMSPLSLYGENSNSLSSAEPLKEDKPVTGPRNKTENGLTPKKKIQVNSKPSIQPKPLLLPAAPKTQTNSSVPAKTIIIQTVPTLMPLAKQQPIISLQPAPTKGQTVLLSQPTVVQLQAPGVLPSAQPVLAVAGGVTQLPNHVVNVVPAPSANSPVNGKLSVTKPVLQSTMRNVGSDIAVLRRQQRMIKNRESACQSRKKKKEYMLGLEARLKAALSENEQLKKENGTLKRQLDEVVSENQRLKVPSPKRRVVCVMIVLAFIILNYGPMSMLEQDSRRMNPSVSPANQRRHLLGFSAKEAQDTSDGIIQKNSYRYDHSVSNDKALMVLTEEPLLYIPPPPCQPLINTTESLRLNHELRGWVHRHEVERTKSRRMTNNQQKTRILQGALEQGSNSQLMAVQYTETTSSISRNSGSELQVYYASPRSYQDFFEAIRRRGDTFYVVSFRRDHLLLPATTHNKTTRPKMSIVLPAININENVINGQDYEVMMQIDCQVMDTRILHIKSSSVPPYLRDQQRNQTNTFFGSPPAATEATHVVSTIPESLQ
UniProt P40617: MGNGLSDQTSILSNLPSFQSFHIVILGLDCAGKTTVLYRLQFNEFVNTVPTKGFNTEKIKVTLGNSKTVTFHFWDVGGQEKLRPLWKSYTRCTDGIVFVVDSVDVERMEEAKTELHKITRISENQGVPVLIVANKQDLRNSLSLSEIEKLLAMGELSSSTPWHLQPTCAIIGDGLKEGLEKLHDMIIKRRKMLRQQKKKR
UniProt Q9NWL6: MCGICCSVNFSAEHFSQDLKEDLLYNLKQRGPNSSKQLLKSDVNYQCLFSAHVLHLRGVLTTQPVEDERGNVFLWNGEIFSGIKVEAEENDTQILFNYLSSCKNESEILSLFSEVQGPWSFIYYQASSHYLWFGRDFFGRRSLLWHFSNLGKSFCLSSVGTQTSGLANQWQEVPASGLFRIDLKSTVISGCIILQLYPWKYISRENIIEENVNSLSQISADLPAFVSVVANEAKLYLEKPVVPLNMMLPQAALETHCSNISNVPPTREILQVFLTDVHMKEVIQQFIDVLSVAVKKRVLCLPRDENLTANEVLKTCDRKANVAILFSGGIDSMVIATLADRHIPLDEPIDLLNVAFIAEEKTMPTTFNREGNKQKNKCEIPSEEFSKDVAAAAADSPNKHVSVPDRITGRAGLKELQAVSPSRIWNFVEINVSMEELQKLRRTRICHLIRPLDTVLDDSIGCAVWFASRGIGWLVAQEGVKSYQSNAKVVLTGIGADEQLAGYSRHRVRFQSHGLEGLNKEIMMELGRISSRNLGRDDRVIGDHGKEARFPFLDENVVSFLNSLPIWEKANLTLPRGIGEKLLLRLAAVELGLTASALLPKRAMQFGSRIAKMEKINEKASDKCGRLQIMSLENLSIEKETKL
UniProt P00966: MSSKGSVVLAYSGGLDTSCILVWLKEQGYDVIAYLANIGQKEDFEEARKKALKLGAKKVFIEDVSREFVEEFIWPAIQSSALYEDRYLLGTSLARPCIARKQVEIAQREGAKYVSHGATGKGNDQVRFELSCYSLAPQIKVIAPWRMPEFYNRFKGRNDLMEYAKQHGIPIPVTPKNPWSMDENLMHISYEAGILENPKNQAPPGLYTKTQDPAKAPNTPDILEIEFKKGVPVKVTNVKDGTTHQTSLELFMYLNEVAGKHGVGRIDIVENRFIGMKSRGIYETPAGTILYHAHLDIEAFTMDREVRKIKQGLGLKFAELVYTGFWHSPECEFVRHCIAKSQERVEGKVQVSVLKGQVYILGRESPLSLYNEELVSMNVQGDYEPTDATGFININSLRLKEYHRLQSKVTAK
UniProt Q9UI12, whole entry, looked up: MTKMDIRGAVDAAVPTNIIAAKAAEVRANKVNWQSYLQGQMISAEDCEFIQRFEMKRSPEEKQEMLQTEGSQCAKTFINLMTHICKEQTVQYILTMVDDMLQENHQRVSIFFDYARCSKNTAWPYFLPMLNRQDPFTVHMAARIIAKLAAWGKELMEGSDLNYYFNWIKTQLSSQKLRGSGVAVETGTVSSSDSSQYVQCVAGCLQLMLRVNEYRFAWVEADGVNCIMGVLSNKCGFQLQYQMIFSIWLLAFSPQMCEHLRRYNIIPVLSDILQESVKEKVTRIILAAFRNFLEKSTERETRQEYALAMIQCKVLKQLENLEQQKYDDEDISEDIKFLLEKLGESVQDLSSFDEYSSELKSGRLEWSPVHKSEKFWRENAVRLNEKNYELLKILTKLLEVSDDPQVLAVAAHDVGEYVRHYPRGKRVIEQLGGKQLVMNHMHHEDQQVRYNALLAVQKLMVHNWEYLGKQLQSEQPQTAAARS
UniProt Q93050, whole entry, looked up: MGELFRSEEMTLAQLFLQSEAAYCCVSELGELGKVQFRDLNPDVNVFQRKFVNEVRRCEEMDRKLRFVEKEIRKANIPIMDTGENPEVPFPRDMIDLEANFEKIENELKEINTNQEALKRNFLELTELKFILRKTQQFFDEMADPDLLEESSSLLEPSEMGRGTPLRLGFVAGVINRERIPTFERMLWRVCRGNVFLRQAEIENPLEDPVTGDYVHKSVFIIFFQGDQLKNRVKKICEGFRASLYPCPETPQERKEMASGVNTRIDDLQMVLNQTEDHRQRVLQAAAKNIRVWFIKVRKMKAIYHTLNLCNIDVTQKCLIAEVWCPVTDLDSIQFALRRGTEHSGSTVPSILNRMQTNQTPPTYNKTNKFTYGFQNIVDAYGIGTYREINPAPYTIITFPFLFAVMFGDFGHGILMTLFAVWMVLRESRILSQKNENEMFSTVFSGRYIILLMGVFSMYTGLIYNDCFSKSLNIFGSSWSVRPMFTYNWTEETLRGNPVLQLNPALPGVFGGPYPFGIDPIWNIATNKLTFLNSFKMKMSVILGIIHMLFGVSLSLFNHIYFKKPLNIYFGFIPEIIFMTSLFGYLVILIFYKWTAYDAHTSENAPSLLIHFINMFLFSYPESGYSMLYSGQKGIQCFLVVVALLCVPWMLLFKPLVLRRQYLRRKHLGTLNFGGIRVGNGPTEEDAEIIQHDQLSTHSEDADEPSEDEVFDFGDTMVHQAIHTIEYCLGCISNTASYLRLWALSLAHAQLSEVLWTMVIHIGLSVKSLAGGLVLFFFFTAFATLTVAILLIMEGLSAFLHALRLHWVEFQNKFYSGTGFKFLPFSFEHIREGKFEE
UniProt Q96DT6: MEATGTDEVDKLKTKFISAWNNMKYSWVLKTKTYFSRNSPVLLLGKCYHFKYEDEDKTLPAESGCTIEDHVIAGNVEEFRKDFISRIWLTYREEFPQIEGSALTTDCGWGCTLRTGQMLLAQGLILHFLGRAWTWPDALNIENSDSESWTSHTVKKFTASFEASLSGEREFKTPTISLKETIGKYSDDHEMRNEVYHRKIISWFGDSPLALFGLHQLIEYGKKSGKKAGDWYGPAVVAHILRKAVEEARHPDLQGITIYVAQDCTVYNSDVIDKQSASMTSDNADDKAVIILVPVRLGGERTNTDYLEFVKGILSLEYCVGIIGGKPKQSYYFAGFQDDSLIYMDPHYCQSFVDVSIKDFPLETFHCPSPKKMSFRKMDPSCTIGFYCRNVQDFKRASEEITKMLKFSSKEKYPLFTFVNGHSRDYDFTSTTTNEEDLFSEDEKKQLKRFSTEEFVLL
UniProt P18847: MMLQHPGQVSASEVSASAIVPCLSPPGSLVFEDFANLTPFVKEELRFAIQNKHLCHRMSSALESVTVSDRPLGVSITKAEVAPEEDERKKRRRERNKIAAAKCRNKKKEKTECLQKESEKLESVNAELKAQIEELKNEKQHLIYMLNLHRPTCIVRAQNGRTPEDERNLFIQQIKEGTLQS
UniProt Q8N2F6: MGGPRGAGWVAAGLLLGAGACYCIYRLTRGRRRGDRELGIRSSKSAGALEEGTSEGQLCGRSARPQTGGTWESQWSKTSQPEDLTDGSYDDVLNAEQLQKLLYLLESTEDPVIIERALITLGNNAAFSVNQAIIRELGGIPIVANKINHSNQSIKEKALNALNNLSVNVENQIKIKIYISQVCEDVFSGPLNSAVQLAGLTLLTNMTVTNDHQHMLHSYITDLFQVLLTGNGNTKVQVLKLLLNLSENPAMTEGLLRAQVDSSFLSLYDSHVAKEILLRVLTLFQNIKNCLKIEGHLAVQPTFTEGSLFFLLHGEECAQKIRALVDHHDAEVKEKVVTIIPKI
UniProt P27449, whole entry, looked up: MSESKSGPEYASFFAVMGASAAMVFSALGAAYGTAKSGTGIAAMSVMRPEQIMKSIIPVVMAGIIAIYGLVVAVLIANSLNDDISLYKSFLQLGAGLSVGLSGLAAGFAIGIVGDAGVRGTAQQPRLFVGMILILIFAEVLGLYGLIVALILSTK
UniProt O95260: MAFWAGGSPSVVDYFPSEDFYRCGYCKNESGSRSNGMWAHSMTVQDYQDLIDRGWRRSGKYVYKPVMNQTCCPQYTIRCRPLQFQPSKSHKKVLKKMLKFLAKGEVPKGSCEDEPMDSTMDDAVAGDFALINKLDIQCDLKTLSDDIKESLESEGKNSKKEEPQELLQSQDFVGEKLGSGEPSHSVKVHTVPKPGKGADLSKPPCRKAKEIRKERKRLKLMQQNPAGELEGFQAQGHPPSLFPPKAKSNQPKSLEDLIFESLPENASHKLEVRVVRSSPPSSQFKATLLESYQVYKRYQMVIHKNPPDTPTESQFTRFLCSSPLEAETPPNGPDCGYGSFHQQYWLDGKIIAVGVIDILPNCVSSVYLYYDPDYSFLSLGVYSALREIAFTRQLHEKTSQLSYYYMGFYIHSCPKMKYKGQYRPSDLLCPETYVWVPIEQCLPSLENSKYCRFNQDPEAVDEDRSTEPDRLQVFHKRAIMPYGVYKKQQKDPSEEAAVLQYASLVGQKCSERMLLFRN

[1] = compound: C/C(=N\NC(=O)C1=CC(=CC=C1)S(=O)(=O)N2CCOCC2)/C3=C(C=CC(=C3)Cl)O
Procedure, shortened: as §1

[2] = compound: C1=CC(=CC=C1C2=NC3=C(N2)C=C(C=C3)C(=O)N)OC4=CC=C(C=C4)Cl
Procedure, shortened: as §1

[3] = compound: C1=CC2=C(C=CC(=C2)/C=C\3/C(=O)NC(=NCC4=CC=CS4)S3)N=C1
Procedure, shortened: as §1

[4] = compound: C1=CC2=NC=CN=C2C=C1/C=C/3\C(=O)NC(=O)S3
Procedure, shortened: as §1

[5] = compound: C1=CC=C2C(=C1)C3=NNC4=CC=CC(=C43)C2=O
Procedure, shortened: as §1

ibrutinib = compound: C=CC(=O)N1CCC[C@@H](n2nc(-c3ccc(Oc4ccccc4)cc3)c3c(N)ncnc32)C1 [ibrutinib]
Procedure, shortened: as §1

[6] = compound: CC(=O)c1cnc2ccc(-c3cc(Cl)c(O)c(Cl)c3)nc2c1N[C@H]1CC[C@H](CN(C)C)CC1
Procedure, shortened: as §1

[7] = compound: CC(C)C1=C2N=C(C=C(N2N=C1)NCC3=CC=CC=C3)NCCCCCCN
Procedure, shortened: as §1

[8] = compound: C1=CC(=C(C=C1Cl)C2=NC3=NC=CN=C3C(=N2)NC4=CC=NC=C4)F
Procedure, shortened: as §1

[9] = compound: C1=CC=C(C=C1)C2=NC(=C(N2)C3=CC=NC=C3)C4=CC(=C(C=C4)Cl)O
Procedure, shortened: as §1

[10] = compound: C1CCN(C1)C(=O)NC2=CC=CC(=C2)NC3=NC=C(C(=N3)NCCC4=CN=CN4)Br
Procedure, shortened: as §1

[11] = compound: C1CN(CCC1(CC2=CC=C(C=C2)Cl)N)C3=NC=NC4=C3C=CN4
Procedure, shortened: as §1

IRAK-1-4 Inhibitor I = compound: C1COCCN1CCN2C3=CC=CC=C3N=C2NC(=O)C4=CC(=CC=C4)[N+](=O)[O-] [IRAK-1-4 Inhibitor I]
Procedure, shortened: as §1

ralimetinib = compound: CC(C)(C)Cn1c(N)nc2ccc(-c3[nH]c(C(C)(C)C)nc3-c3ccc(F)cc3)nc21 [ralimetinib]
Procedure, shortened: as §1

[12] = compound: CC(C)(O)CC(=O)NCCn1ccc2ncnc(Nc3ccc(Oc4cccc(C(F)(F)F)c4)c(Cl)c3)c21
Procedure, shortened: as §1

[13] = compound: CC(C)C[C@@H](C=O)NC(=O)[C@H](CC(C)C)NC(=O)[C@H](CC(C)C)NC(=O)OCc1ccccc1
Procedure, shortened: as §1

pinometostat = compound: CC(C)N(C[C@H]1O[C@@H](n2cnc3c(N)ncnc32)[C@H](O)[C@@H]1O)[C@H]1C[C@@H](CCc2nc3cc(C(C)(C)C)ccc3[nH]2)C1 [pinometostat]
Procedure, shortened: as §1

[14] = compound: CC1=C(C(CC(=O)N1)C2=CC=C(C=C2)C(F)(F)F)C(=O)NC3=C(C=C4C(=C3)C=NN4)F
Procedure, shortened: as §1

[15] = compound: CC1=C(C2=C(C=C1)C(=O)C3=CC=CC=C3N2CCCN)C
Procedure, shortened: as §1

Measured: log2 fold change

ATP2C1 isoform 3 (UniProt P98194)
inactive: erlotinib -0.126 | [1] 0.25 | [2] -0.028 | [3] -0.118 | [4] 0.048 | [5] -0.223 | ibrutinib -0.051 | [6] -0.046 | [7] -0.026

ATG14 (UniProt Q6ZNE5)
inactive: erlotinib -0.037 | [1] -0.042 | [2] 0.158 | [3] -0.277 | [4] 0.216 | [5] 0.21 | ibrutinib 0.061 | [6] -0.16 | [7] -0.066

ATP5F1B (UniProt F8W0P7)
inactive: [1] 0.185 | [8] 0.335 | [3] 0.173 | [4] -0.155 | [9] -0.146 | [5] 0.096 | [10] 0.053 | [11] 0.073 | IRAK-1-4 Inhibitor I -0.039 | ibrutinib 0.116 | [6] -0.077 | ralimetinib 0.014 | [12] 0.064 | [13] 0.075 | pinometostat -0.049 | [14] -0.399 | [15] 0.047

ATF7IP isoform 4 (UniProt Q6VMQ6)
inactive: erlotinib -0.004 | [1] 0.111 | [8] 0.012 | [2] 0.06 | [3] 0.059 | [4] 0.073 | [5] 0.023 | [10] 0.183 | [11] 0.127 | IRAK-1-4 Inhibitor I -0.15 | ibrutinib 0.126 | [6] -0.448 | [12] -0.35 | [7] 0.09 | pinometostat 0.219 | [14] 0.227 | [15] 0.032

Copied from the listing (three entries):
ATP2C1 isoform 3 (UniProt P98194)
inactive: erlotinib -0.126 | [1] 0.25 | [2] -0.028 | [3] -0.118 | [4] 0.048 | [5] -0.223 | ibrutinib -0.051 | [6] -0.046 | [7] -0.026

ATG14 (UniProt Q6ZNE5)
inactive: erlotinib -0.037 | [1] -0.042 | [2] 0.158 | [3] -0.277 | [4] 0.216 | [5] 0.21 | ibrutinib 0.061 | [6] -0.16 | [7] -0.066

ATP5F1B (UniProt F8W0P7)
inactive: [1] 0.185 | [8] 0.335 | [3] 0.173 | [4] -0.155 | [9] -0.146 | [5] 0.096 | [10] 0.053 | [11] 0.073 | IRAK-1-4 Inhibitor I -0.039 | ibrutinib 0.116 | [6] -0.077 | ralimetinib 0.014 | [12] 0.064 | [13] 0.075 | pinometostat -0.049 | [14] -0.399 | [15] 0.047

(cont.)

ATF6 (UniProt P18850)
inactive: [9] -0.338 | ralimetinib 0.026 | [13] 0.615

ARL4A (UniProt P40617)
inactive: [1] 0.009 | [3] 0.35 | [4] -0.053 | [5] 0.047 | ibrutinib 0.143 | [6] -0.295

ASNSD1 (UniProt Q9NWL6)
inactive: [8] 0.162 | [4] -0.001 | IRAK-1-4 Inhibitor I 0.103 | ibrutinib -0.057 | [12] -0.025 | pinometostat -0.065 | [14] -0.316

ARPIN isoform 2 (UniProt Q7Z6K5)
inactive: erlotinib 0.087 | [1] 0.25 | [2] -0.273 | [3] -0.244 | [4] 0.246 | [9] -0.056 | [5] 0.057 | [10] 0.043 | [11] -0.028 | IRAK-1-4 Inhibitor I -0.043 | ibrutinib -0.007 | [6] -0.159 | ralimetinib -0.073 | [7] -0.163 | [13] 0.246 | pinometostat 0.086 | [14] 0.092 | [15] -0.032

ASS1 (UniProt P00966)
inactive: erlotinib 0.059 | [8] -0.05 | [2] 0.008 | [3] -0.003 | [4] 0.036 | [9] 0.012 | [5] 0.118 | [10] 0.103 | [11] -0.037 | ibrutinib 0.05 | [6] -0.155 | ralimetinib -0.022 | [12] -0.064 | [7] -0.122 | [13] 0.006 | [15] -0.021
active: [1] 0.301

ATP6V1H (UniProt Q9UI12)
inactive: erlotinib -0.055 | [1] 0.015 | [8] 0.034 | [2] 0.035 | [3] -0.008 | [4] 0.045 | [9] -0.131 | [5] 0.024 | [10] -0.051 | [11] -0.097 | IRAK-1-4 Inhibitor I -0.011 | ibrutinib -0.033 | [6] -0.065 | ralimetinib 0.007 | [12] -0.014 | [13] 0.043 | pinometostat -0.002 | [15] 0.028
active: [7] -0.241

ATP6V0A1 (UniProt Q93050)
inactive: [4] 0.187 | ibrutinib 0.047

ATG4B isoform 2 (UniProt Q9Y4P1)
inactive: erlotinib -0.008 | [1] 0.078 | [8] 0.017 | [2] 0.178 | [3] 0.118 | [4] 0.089 | [9] 0.143 | [5] -0.046 | [10] -0.087 | [11] -0.033 | IRAK-1-4 Inhibitor I 0.127 | ibrutinib -0.038 | [6] -0.102 | ralimetinib 0.134 | [12] -0.194 | [7] -0.299 | [13] -0.137 | pinometostat -0.013 | [15] 0.114

ATG4C (UniProt Q96DT6)
inactive: erlotinib -0.065 | [8] 0.009 | [2] -0.003 | [4] 0.118 | [9] -0.004 | [10] 0.013 | [11] 0.143 | IRAK-1-4 Inhibitor I 0.035 | ibrutinib 0.096 | ralimetinib 0.115 | [12] -0.019 | [7] -0.001 | [13] -0.003 | pinometostat 0.035 | [14] -0.02 | [15] 0.377

ATF3 (UniProt P18847)
inactive: erlotinib -0.12 | [1] 0.067 | [8] 0 | [2] 0.504 | [3] 0.026 | [4] 0.021 | [9] -0.233 | [5] -0.024 | [10] 0.191 | [11] -0.079 | ibrutinib 0.081 | [6] -0.113 | ralimetinib -0.024 | [12] 0.072 | [7] -0.087 | [13] 0.179 | [14] -0.229 | [15] -0.102

ARMC10 (UniProt Q8N2F6)
inactive: erlotinib -0.021 | [1] 0.044 | [8] -0.092 | [2] -0.066 | [3] 0.005 | [4] 0.006 | [9] -0.034 | [5] 0.016 | [10] 0.003 | [11] -0.023 | IRAK-1-4 Inhibitor I 0.001 | ibrutinib -0.018 | [6] -0.035 | ralimetinib -0.003 | [12] -0.029 | [7] 0.005 | [13] 0.034 | pinometostat 0.033 | [15] 0

ATP6V0C (UniProt P27449)
inactive: erlotinib -0.27 | [1] -0.139 | [8] -0.253 | [2] 0.273 | [3] -0.123 | [4] 0.02 | [5] 0.107 | [10] -0.4 | [11] 0.154 | ibrutinib 0.033 | [6] -0.148 | [12] 0.053 | [7] -0.281 | [14] -0.195 | [15] -0.067

ATE1 (UniProt O95260)
inactive: [1] -0.229 | [8] 0.05 | [3] 0.227 | [5] 0.129 | [10] 0.027 | [11] 0.029 | IRAK-1-4 Inhibitor I -0.133 | [6] -0.016 | [12] -0.422 | pinometostat -0.313 | [15] 0.172

Reference: the supplement of paper PMC10849652
